From article PMC7051184, “C9orf72 arginine-rich dipeptide repeat proteins disrupt karyopherin-mediated nuclear import” (eLife, 2020) come the findings set out here.

The chains behind the UniProt entries cited, without tags or fusion partners. Residues count along the entry.
UniProt O00571: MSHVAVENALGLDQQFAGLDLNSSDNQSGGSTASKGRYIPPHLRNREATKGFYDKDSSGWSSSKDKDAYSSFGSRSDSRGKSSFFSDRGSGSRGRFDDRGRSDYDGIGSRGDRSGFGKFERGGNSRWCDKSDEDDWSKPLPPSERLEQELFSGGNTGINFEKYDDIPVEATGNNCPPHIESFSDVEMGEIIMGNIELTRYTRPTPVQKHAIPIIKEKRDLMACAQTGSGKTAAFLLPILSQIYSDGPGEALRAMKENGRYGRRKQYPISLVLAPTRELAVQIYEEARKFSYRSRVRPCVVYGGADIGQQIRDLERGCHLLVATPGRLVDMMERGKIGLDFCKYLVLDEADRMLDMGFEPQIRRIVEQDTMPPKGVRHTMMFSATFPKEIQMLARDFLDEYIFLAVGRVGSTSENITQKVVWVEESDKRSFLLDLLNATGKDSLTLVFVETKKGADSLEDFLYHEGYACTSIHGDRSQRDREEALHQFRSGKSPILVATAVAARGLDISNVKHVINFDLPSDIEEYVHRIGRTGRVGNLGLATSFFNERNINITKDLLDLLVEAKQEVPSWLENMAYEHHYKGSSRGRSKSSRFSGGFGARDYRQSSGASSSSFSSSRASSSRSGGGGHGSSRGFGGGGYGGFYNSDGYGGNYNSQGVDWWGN
UniProt P35637: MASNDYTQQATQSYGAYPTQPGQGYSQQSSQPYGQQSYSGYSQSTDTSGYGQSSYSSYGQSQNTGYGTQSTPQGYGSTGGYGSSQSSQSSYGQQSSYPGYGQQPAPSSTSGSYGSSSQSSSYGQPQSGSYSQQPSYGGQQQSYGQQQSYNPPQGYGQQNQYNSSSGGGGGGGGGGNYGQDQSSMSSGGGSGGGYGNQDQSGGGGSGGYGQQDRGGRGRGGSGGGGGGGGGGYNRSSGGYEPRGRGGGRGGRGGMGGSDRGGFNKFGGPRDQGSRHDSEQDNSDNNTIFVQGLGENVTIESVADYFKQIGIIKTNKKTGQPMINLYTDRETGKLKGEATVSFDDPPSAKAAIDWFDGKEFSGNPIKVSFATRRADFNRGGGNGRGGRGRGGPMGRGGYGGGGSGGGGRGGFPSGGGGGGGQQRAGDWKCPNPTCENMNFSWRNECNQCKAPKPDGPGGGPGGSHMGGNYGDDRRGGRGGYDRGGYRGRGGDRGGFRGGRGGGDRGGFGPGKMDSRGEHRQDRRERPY
UniProt P37198: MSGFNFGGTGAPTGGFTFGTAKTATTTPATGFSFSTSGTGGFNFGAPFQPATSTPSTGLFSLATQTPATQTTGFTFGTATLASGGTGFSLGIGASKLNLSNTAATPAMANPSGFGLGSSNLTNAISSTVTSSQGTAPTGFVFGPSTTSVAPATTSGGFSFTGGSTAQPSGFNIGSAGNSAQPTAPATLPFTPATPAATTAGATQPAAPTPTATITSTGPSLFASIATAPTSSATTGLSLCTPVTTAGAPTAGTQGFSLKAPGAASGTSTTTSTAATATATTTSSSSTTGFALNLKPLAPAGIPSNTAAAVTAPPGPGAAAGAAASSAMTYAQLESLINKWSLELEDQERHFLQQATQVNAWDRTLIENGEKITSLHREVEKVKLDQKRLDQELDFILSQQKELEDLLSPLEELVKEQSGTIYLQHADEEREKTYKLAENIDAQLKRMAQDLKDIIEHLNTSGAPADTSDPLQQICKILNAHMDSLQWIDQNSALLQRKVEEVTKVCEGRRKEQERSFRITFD
UniProt P52948, residues 1-880: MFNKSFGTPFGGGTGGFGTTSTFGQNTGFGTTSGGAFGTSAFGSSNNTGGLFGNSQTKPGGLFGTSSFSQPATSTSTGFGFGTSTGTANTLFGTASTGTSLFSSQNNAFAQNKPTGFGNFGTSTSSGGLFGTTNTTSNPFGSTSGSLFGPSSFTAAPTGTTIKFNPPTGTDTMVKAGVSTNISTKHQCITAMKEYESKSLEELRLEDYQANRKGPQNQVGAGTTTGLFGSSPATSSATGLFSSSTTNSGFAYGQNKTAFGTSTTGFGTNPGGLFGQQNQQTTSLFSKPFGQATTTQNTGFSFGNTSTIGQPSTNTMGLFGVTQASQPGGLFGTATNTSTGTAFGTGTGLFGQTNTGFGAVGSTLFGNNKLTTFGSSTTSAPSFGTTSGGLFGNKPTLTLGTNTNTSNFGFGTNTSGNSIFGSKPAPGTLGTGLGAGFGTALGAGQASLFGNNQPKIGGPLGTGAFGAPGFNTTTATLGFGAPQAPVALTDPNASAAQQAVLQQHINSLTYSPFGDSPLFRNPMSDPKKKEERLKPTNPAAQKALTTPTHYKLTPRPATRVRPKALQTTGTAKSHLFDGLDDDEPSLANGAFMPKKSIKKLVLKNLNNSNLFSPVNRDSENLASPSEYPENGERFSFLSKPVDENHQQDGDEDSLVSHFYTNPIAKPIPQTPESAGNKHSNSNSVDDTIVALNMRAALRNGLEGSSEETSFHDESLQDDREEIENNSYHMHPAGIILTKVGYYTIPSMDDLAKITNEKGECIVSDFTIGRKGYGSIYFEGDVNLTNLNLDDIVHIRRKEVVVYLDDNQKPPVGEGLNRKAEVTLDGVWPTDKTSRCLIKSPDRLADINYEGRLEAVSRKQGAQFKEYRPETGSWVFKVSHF
UniProt P18754: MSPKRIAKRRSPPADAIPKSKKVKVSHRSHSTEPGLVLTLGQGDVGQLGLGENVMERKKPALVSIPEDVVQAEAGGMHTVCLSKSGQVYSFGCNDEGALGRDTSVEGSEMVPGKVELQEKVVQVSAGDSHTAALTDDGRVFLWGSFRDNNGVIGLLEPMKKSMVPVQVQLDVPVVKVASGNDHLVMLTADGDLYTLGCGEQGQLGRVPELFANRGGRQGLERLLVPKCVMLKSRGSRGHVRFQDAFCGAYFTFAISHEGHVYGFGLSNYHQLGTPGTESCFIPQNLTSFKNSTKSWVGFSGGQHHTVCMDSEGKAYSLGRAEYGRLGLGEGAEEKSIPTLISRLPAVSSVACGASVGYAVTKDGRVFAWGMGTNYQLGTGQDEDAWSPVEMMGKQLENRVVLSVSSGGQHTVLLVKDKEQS
UniProt Q13148: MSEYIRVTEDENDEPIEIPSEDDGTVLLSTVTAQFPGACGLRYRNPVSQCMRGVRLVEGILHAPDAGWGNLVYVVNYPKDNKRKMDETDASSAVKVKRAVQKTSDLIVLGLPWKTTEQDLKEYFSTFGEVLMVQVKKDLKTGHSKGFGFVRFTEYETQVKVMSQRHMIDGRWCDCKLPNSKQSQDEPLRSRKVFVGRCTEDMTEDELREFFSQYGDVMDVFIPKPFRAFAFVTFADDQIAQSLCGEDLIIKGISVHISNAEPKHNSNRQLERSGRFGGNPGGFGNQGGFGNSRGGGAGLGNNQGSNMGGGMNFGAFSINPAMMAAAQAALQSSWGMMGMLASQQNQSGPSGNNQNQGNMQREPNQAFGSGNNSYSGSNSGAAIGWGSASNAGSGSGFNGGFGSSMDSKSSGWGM
UniProt Q14974: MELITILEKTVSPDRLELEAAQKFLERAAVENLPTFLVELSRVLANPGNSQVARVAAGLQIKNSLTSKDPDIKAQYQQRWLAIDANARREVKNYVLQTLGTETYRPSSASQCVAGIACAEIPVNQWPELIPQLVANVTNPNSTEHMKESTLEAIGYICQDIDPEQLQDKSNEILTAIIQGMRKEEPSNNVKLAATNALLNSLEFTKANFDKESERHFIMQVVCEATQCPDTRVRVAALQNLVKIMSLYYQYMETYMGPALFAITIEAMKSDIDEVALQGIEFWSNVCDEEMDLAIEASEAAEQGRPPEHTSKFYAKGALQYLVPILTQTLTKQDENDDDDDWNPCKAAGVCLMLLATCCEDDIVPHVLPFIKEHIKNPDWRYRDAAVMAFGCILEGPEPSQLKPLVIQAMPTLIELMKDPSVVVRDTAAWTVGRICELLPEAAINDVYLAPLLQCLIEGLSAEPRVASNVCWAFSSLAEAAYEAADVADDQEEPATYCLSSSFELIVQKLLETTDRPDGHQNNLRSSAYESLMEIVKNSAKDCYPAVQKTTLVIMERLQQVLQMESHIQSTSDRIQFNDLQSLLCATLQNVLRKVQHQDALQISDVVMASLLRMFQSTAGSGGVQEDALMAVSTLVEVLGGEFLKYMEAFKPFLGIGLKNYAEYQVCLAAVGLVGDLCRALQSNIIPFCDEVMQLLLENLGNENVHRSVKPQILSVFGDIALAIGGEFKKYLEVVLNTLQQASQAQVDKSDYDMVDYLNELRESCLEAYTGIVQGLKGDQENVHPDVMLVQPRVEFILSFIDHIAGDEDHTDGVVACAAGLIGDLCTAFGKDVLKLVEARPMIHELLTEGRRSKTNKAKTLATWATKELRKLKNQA
UniProt Q92973: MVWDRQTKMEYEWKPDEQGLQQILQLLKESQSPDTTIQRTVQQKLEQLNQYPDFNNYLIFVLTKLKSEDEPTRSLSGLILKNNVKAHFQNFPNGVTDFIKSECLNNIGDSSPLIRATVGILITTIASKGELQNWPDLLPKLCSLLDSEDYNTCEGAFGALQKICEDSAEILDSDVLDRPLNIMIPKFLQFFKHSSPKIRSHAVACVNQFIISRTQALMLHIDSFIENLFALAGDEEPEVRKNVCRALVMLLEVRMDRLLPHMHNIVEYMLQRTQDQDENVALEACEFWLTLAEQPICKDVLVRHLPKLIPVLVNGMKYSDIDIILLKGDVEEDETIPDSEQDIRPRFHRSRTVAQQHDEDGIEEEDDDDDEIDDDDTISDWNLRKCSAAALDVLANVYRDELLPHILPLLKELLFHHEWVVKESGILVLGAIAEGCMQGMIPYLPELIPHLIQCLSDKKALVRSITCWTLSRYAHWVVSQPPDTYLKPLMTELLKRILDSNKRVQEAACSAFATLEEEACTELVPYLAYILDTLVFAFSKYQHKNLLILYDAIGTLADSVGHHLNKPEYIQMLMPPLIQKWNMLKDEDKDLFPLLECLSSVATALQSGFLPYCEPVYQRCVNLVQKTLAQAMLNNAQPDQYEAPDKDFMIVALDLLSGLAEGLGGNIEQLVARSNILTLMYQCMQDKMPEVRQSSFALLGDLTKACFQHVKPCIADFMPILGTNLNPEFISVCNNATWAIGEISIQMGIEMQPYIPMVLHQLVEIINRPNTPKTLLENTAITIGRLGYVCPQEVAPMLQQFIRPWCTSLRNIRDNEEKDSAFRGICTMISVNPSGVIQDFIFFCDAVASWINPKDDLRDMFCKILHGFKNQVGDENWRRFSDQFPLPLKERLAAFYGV

These are yes or no findings as the source states them, for the method shown. Binding seen in cells or lysates may run through a third protein. Some entries that bind do so weakly or less than the wild type.

Assay [1] has as its target T1, GR10, synthetic poly-glycine-arginine 10-mer dipeptide repeat protein with C-terminal lysine and cysteine (human).
T1 sequence (peptide): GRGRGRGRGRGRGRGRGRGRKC
The assay is described as follows: co-sedimentation; 100 µM DPR 10-mers added to 2.5 mg/ml HEK lysate in transport buffer with energy, 1 hr; aggregates pelleted, rinsed; equal volumes of supernatant and pellet analysed by immunoblot; only the target purified.

For assay [2], the target named is T2, PR10, synthetic poly-proline-arginine 10-mer dipeptide repeat protein with C-terminal lysine and cysteine (human).
T2 sequence (peptide): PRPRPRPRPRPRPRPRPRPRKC
The description is as above.

Assay [3] addresses T1, GR10, synthetic poly-glycine-arginine 10-mer dipeptide repeat protein with C-terminal lysine and cysteine (human). The assay is described as follows: co-sedimentation; 50 µM GR10 or 25 µM PR10 added to 5 mg/ml HEK whole cell lysate (TRB with energy mix), 60 min at 37°C; aggregates pelleted at 16,000 g for 10 min, washed 2x; pellet analysed by LC/MS/MS; only the target purified.

For assay [4], the target named is T2, PR10, synthetic poly-proline-arginine 10-mer dipeptide repeat protein with C-terminal lysine and cysteine (human). The assay is described as above.

On to “ATP-dependent RNA helicase DDX3X of HEK cell lysate (from UniProt O00571 1-662)”, for which the binding result in assay [1] and in assay [2] was “binds” in each case.
For “FUS of HEK cell lysate (from UniProt P35637 1-526)”, the binding result in assay [1], in assay [2], in assay [3] and in assay [4] was “binds” throughout.
On to “Nup62 of HEK cell lysate (from UniProt P37198 1-522)”, for which the binding result in assay [1] and in assay [2] was “binds” in each case.
Take “Nup98 of HEK cell lysate (from UniProt P52948 1-880)”: the binding entry in assay [1] and in assay [2] was “binds” in each case.
Regarding “RCC1 of HEK cell lysate (from UniProt P18754 1-421)”, the binding result in assay [1] and in assay [2] was “no binding” each time.
Take “TDP-43 of HEK cell lysate (from UniProt Q13148 1-414)”: the binding result in assay [1], in assay [2], in assay [3] and in assay [4] was “binds” throughout.
For the substance “importin β of HEK cell lysate (from UniProt Q14974 1-876)”, the binding result in assay [1] and in assay [2] was “binds” each time.
“transportin-1 of HEK cell lysate (from UniProt Q92973 1-898)”: the binding result in assay [1] and in assay [2] was “binds” in each case.
